# Values from PubChem BioAssay AID1053208 (Peter MacCallum Cancer Centre, 2014).
# Assay: 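Synthetic lethal interactions between gene loss and doxorubicin in osteosarcoma cells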 (primary screen)
# Cell system: mouse osteosarcoma cells, early-passage culture from an engineered mouse model of fibroblastic bone tumour
# Reagents: siRNA pool against mouse genes, 40 nM
# Timing: about 120 h (48 h before drug, then 72 h with drug)
# Conditions: doxorubicin 100 nM for 72 h, roughly 30-40% inhibitory dose
# Measured: 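Luminescent ATP signal taken as viability with or without 100 nM doxorubicin for 72 h; mean of two wells set against non-targeting siRNA and turned into robust z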
# Reading the numbers: viability z-score with doxorubicin and doxorubicin viability vs non-targeting: higher = more viable cells under doxorubicin; viability z-score without drug: higher = more viable cells with knock-down alone; z-score of drug to no-drug ratio: higher = less drug sensitisation by knock-down
# Call rule: 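a pool counts as active when its viability z-score with doxorubicin is -2 or below and its z-score without drug lies between -2 and 2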
# In all, the deposit lists about 17,000 reagents; shown is a part drawn at random. In the full data, 788 (4.7%) were called active. 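Calls rest on z-score classes alone; an extra cut-off of viability at most 70% of control was not applied to them.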 The numbers tell different reagents against one gene apart.
Gene,reagent no.,combined z-score class,viability z-score with doxorubicin,viability z-score without drug,z-score of drug to no-drug ratio,doxorubicin viability vs non-targeting,activity call
Rbl2,1,no change with or without drug,0.9,0.17,0.9,1.02,inactive
Syt4,1,no change with or without drug,0,0.67,-0.34,0.94,inactive
Il11ra1,1,no change with or without drug,0.45,0.51,0.22,0.98,inactive
Fbxl9,1,no change with or without drug,-0.45,0.17,-0.45,0.9,inactive
Gabrr1,1,no change with or without drug,1.24,0.17,1.24,1.05,inactive
Crybb2,1,no change with or without drug,-0.79,-0.34,-0.45,0.87,inactive
Tex12,1,no change with or without drug,-1.69,0.34,-1.91,0.79,inactive
Nmi,1,no change with or without drug,-0.22,-1.18,0.79,0.92,inactive
Recql,1,no change with or without drug,0,-0.17,0.22,0.94,inactive
Or5b123,1,no change with or without drug,1.12,-1.01,2.14,1.04,inactive
Gpr21,1,high cell count with doxorubicin only,2.7,0.51,2.47,1.18,inactive
Plekhb1,1,low cell count with doxorubicin only,-2.02,-0.17,-1.91,0.76,active

Next part (2 carried over from the part before).
Gene,reagent no.,combined z-score class,viability z-score with doxorubicin,viability z-score without drug,z-score of drug to no-drug ratio,doxorubicin viability vs non-targeting,activity call
Gpr21,1,high cell count with doxorubicin only,2.7,0.51,2.47,1.18,inactive
Plekhb1,1,low cell count with doxorubicin only,-2.02,-0.17,-1.91,0.76,active
Or6c38,1,no change with or without drug,1.35,1.85,0.22,1.06,inactive
Sprr4,1,no change with or without drug,1.35,-0.17,1.69,1.06,inactive
Gstt4,1,no change with or without drug,-1.24,-1.52,-0.11,0.83,inactive
Atp6v0a4,1,no change with or without drug,-0.9,0.51,-1.12,0.86,inactive
Slc8b1,1,no change with or without drug,0.22,-0.17,0.45,0.96,inactive
Tnfrsf18,1,no change with or without drug,0.34,-0.17,0.56,0.97,inactive
Pcnx2,1,no change with or without drug,0.34,-0.17,0.56,0.97,inactive
Pcnx2,2,no change with or without drug,0.79,0.51,0.56,1.01,inactive
Dffa,1,no change with or without drug,0.56,-0.51,1.12,0.99,inactive
Foxo1,1,no change with or without drug,0.45,-0.51,1.01,0.98,inactive
Krtap14,1,no change with or without drug,-1.24,-0.84,-0.67,0.83,inactive
Naaa,1,no change with or without drug,-0.11,1.18,-0.79,0.93,inactive
Tm2d3,1,no change with or without drug,0,-0.84,0.67,0.94,inactive
Ahsg,1,no change with or without drug,0.56,0,0.67,0.99,inactive
Stxbp5l,1,no change with or without drug,0.22,0.34,0.11,0.96,inactive
Hoga1,1,low cell count with doxorubicin only,-2.36,1.18,-2.92,0.73,active
Crybg3,1,no change with or without drug,-0.34,-0.51,0.11,0.91,inactive
Or51v14,1,no change with or without drug,-0.45,-0.84,0.22,0.9,inactive
Trib1,1,no change with or without drug,-1.01,-0.67,-0.56,0.85,inactive
3830403N18Rik,1,no change with or without drug,1.24,0.34,1.12,1.05,inactive
Cacna2d2,1,no change with or without drug,-0.56,1.18,-1.24,0.89,inactive
Cdh6,1,no change with or without drug,-1.24,-0.51,-0.9,0.83,inactive
